Reference: paper PMC6850887
No constants are given. Whether binding was seen depends on the method and setting. Binding seen in cells or lysates may run through a third protein. Some results given as binding are weak or reduced against the parent protein; the word gives no strength. Sequences can lack the tags named with a protein.

Sequences of proteins named here, by UniProt entry; tags and fusion partners are left off.
UniProt P93002: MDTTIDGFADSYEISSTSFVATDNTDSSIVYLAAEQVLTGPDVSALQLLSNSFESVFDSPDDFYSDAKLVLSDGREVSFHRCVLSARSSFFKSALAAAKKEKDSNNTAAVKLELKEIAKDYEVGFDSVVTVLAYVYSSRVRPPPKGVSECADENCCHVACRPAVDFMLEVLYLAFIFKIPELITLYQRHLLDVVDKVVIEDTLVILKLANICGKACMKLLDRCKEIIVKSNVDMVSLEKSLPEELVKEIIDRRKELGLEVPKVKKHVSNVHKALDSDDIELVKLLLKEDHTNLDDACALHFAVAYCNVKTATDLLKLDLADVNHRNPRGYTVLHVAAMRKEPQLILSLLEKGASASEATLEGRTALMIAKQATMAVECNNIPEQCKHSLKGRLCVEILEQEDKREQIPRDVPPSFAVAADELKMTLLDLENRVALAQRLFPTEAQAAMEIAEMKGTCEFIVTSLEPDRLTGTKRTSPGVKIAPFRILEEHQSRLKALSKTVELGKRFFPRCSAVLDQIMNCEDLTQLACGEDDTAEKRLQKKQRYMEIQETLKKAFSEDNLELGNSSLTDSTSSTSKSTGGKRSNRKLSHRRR

T1: FLAG-tagged UBP6 (Arabidopsis thaliana) (UniProt Q949Y0)
T1 sequence: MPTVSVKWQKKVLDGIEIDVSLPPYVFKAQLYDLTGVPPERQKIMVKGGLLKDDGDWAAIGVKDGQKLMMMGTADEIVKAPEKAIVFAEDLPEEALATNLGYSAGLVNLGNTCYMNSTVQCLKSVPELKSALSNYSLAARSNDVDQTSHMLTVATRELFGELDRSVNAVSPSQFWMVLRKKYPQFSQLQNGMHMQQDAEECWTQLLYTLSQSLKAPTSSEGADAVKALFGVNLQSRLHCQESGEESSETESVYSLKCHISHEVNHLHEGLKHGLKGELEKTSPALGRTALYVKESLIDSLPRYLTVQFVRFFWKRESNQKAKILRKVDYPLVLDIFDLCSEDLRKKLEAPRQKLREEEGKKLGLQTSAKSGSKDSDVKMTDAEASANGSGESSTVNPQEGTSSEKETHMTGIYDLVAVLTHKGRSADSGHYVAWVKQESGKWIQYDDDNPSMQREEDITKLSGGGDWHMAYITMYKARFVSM


Legend:
[1] = target: T1, FLAG-tagged UBP6 (Arabidopsis thaliana); assay: co-IP; FLAG-UBP6 immunoprecipitated overnight at 4°C with anti-FLAG M2 affinity gel from seedling extract in proteasome extraction buffer (50 mM Tris-HCl pH 7.4, 25 mM NaCl, 2 mM MgCl2, 1 mM EDTA, 10 mM ATP, 5% glycerol); immunoblots against S5a and RPN6
[2] = target: polyubiquitinated NPR1-GFP (Arabidopsis thaliana) (UniProt P93002); assay: pull-down; polyubiquitinated NPR1-GFP purified from SA- and MG132-treated seedlings and held on GFP-Trap agarose, incubated for 2 hr with in vitro synthesised FLAG-UBE4; immunoblots with GFP and FLAG antibodies; only the target purified

Row | binding [1] | binding [2] | Binder
1 | binds | – | proteasomal subunit S5a (protein, UniProt P55034 1-386) MVLEATMICIDNSEWMRNGDYSPSRLQAQTEAVNLLCGAKTQSNPENTVGILTMAGKGVRVLTTPTSDLGKILACMHGLDVGGEINLTAAIQIAQLALKHRQNKNQRQRIIVFAGSPIKYEKKALEIVGKRLKKNSVSLDIVNFGEDDDEEKPQKLEALLTAVNNNDGSHIVHVPSGANALSDVLLSTPVFTGDEGASGYVSAAAAAAAAGGDFDFGVDPNIDPELALALRVSMEEERARQEAAAKKAADEAGQKDKDGDTASASQETVARTTDKNAEPMDEDSALLDQAIAMSVGDVNMSEAADEDQDLALALQMSMSGEESSEATGAGNNLLGNQAFISSVLSSLPGVDPNDPAVKELLASLPDESKRTEEEESSSKKGEDEKK
2 | – | binds | FLAG-UBE4 (enzyme, UniProt Q9LF41 1-1038) MATSKPQRSPAEIEDIILRKIFYVTLTESTDSDPRIVYLEMTAAEILSEGKELLLSRDLMERVLIDRLSGDFSDAEPPFPYLIGCHRRAYDESKKIQSMKDKNLRSEMEIVTKQAKKLAVSYCRIHLGNPDMFGNSDKPSGGLDNRLKKRNVSPVLPLIFAEVGSGSLDMFGASSSGVQAPPGFLDEFFKDSDFDSLDSILKELYEDLRSTVINVSVLGDFQPPLRALKYLVSLPVGAKSLVSHEWWVPRGAYMNGRAMELTSILGPFFHISALPDNTLFKSQPDVGQQCFSEASERRPADLLSSFSTIKNFMNILYSGLHDVLMILLKSTDTRERVLQFLAEVINANASRAHIQVDPVSCASSGMFVNLSAVMLRLCEPFLDPHLTKRDKIDPKYAFCGHRLKLSDLTALHASSEEVTEWIGKDAMANANDAGRENGNESRLLQSKEATSSSSNASGQNAKSATKYTFICECFFMTARVLNLGLLKALSDFKHLAQDISRGEDNLATLKAMRDQAPSPQLELDISRMEKELELSSQEKLCHEAQILRDGDFIQRALSFYRLMVVWLVGLVGGFKMPLPSTCPMEFSCMPEHFVEDAMELLIFASRIPKALDGVPLDDFMNFIIMFMASPEYVRNPYLRAKMVEVLNCWMPRSSSSSSATSTLFEGHQLSLEYLVRNLLKLYVDIEFTGSHTQFYDKFNIRHNIAELLEYLWQVPSHRNAWRRIAKDEEKGVYLNFLNFLVNDSIYLLDESLNKILEIKQIEADMSNTAEWEQRPTQERQERTRLFHSQENIVRIDMKLANEDVTMLAFTSEEITAPFLLPEMVERVANMLNYFLLQLVGPQRKSLSLKDPEKYEFRPKQLLKQIVRIYVNLARGDTVNIFPGAISSDGRSYNEQLFNAGADVLRRIGEEGRIIQEFMELGTKAKAAASEALDAEAALGEIPDEFLDPIQYTLMRDPVILPSSRITVDRPIIQRHLLSDNHDPFNRAHLTSDMLIPDIELKAKIDEFVKSHQSKKRTSGEDSSNKERIQTTNSDMLID
